Laboratory results published in the supplement of paper PMC10060354, “Discovery of a small molecule ligand of FRS2 that inhibits invasion and tumor growth” (Cellular Oncology, 2022).

Chains of the proteins cited; added tags and fusions are not shown. Lines headed by an entry give the natural chain unless they say otherwise; changes in a name come on top.
UniProt Q14117, whole entry: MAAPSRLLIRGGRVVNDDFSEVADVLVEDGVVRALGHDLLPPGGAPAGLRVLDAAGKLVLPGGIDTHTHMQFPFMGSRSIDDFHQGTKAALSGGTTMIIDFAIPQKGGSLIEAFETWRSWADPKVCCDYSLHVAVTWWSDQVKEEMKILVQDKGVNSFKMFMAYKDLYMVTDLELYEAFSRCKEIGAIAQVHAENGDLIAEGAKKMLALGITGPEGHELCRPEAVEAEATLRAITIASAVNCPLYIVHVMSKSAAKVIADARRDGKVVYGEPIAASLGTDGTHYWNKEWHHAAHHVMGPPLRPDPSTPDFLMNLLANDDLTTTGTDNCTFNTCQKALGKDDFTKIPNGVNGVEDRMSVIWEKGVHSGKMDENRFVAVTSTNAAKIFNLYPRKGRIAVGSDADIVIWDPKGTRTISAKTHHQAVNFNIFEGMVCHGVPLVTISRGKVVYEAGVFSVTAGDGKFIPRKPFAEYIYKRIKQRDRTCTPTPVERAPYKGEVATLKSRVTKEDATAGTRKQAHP
UniProt P23497: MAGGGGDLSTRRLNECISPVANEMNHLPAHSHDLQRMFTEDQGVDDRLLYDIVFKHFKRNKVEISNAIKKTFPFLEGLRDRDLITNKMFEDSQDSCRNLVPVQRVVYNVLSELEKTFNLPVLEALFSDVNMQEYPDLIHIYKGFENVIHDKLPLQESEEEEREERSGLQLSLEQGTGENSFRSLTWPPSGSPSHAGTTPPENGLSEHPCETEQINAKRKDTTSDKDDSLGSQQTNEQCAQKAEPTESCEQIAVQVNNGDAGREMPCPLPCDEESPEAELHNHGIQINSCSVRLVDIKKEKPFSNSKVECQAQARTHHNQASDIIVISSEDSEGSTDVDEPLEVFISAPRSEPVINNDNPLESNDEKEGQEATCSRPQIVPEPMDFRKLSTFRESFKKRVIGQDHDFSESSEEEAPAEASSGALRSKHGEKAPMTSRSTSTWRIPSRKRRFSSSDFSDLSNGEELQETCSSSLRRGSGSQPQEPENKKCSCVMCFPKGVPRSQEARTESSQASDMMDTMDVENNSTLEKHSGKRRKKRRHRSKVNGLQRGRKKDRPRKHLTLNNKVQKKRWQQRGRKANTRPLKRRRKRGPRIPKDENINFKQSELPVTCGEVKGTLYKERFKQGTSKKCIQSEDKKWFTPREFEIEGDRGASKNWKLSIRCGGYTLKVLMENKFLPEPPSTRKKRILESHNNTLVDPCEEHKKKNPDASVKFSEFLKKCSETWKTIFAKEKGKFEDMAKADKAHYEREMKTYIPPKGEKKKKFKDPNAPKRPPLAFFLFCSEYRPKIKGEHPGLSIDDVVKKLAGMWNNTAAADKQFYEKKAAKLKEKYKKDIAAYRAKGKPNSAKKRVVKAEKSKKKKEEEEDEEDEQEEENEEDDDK
UniProt Q13435: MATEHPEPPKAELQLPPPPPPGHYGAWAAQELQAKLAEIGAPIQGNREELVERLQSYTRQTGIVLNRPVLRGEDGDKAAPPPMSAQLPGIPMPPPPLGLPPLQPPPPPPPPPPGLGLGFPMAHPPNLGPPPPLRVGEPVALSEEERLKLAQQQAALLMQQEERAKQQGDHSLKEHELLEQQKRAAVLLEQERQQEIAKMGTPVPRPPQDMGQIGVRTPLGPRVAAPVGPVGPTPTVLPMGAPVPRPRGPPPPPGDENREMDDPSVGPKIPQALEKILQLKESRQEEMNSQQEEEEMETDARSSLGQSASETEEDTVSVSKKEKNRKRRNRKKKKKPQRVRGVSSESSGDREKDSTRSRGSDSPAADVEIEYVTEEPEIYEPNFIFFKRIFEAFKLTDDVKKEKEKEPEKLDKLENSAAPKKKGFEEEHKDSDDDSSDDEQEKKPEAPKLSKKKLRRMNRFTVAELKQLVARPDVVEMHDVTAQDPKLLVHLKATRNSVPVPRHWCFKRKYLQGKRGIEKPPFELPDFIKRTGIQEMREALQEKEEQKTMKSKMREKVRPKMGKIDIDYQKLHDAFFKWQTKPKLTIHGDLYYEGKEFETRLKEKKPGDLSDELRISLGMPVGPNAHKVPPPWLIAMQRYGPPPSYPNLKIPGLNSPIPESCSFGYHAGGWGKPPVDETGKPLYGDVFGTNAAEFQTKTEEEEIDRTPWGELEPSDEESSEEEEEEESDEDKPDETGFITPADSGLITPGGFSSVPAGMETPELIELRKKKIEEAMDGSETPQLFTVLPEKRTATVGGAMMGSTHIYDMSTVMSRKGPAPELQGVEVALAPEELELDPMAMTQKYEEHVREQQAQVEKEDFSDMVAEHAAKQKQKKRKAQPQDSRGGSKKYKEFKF
UniProt Q9UKM9: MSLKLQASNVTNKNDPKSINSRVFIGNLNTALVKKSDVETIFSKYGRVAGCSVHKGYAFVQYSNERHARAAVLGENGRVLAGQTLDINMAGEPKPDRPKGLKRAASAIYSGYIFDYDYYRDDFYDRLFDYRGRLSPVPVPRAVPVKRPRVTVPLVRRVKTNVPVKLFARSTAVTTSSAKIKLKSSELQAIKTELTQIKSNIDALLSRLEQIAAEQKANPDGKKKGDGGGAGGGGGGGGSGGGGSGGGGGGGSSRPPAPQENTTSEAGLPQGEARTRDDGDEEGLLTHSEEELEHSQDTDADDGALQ
UniProt Q5T7M9: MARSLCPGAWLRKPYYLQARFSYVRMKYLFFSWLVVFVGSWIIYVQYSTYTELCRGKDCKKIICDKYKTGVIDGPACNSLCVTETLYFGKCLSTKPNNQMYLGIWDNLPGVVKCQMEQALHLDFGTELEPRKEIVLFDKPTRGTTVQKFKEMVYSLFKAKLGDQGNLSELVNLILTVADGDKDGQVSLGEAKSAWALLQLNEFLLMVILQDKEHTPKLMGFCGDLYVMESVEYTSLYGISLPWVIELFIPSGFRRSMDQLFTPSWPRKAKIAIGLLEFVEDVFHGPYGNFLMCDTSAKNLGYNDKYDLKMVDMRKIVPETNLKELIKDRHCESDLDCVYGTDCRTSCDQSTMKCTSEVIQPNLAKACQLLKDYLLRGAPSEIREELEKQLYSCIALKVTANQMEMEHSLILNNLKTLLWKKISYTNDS
UniProt Q9H0N0: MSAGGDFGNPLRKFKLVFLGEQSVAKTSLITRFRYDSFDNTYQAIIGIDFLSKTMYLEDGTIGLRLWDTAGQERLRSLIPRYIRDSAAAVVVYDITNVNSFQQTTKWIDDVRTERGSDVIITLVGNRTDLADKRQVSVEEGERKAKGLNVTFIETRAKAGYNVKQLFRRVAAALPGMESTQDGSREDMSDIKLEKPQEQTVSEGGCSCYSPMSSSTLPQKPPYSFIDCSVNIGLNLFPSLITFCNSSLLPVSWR
UniProt Q5T9A4: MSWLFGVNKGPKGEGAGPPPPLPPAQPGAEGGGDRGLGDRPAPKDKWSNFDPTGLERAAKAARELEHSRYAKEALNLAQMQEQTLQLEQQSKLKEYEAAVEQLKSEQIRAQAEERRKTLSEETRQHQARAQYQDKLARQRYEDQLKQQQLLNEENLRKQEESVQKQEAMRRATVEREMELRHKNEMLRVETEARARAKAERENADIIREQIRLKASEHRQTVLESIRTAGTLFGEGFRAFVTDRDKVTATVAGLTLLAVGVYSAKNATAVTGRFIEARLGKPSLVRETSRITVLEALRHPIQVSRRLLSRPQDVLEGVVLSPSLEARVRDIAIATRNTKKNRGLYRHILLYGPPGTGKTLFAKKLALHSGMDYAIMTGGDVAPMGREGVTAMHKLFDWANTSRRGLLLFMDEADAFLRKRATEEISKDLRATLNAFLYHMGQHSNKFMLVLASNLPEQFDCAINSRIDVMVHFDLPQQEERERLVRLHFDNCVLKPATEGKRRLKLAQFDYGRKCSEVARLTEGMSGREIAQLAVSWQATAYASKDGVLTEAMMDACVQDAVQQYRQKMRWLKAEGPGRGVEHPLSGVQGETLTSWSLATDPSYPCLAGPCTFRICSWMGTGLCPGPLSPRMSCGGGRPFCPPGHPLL
UniProt P62253: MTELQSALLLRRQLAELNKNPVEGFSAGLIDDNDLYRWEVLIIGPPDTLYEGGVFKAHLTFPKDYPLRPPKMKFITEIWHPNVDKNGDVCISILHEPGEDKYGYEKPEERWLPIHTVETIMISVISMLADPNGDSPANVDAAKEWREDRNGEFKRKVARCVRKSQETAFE
UniProt O94763, whole entry: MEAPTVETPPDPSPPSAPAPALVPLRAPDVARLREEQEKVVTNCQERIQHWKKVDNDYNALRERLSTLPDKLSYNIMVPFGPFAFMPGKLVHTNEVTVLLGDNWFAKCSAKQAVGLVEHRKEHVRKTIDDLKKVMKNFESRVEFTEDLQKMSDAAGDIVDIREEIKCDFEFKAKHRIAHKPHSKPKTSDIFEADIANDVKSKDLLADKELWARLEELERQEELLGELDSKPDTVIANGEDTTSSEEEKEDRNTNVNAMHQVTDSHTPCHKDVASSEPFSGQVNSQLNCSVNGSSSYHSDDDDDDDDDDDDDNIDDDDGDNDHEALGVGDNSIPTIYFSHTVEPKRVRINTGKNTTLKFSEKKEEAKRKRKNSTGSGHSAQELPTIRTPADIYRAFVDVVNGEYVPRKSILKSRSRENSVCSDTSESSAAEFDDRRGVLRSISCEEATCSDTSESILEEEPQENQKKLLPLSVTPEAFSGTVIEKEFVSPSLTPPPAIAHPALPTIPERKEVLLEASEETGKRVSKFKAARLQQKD
UniProt A6NDG6: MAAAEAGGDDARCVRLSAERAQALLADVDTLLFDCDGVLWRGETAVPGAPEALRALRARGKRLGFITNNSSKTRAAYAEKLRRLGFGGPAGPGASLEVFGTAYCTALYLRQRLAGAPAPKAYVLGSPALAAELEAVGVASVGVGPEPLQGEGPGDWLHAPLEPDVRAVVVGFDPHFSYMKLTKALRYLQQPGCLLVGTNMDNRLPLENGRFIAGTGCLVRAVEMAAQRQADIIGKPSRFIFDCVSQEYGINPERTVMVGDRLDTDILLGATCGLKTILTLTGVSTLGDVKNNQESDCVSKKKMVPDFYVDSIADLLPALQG
UniProt Q8NEB9, whole entry: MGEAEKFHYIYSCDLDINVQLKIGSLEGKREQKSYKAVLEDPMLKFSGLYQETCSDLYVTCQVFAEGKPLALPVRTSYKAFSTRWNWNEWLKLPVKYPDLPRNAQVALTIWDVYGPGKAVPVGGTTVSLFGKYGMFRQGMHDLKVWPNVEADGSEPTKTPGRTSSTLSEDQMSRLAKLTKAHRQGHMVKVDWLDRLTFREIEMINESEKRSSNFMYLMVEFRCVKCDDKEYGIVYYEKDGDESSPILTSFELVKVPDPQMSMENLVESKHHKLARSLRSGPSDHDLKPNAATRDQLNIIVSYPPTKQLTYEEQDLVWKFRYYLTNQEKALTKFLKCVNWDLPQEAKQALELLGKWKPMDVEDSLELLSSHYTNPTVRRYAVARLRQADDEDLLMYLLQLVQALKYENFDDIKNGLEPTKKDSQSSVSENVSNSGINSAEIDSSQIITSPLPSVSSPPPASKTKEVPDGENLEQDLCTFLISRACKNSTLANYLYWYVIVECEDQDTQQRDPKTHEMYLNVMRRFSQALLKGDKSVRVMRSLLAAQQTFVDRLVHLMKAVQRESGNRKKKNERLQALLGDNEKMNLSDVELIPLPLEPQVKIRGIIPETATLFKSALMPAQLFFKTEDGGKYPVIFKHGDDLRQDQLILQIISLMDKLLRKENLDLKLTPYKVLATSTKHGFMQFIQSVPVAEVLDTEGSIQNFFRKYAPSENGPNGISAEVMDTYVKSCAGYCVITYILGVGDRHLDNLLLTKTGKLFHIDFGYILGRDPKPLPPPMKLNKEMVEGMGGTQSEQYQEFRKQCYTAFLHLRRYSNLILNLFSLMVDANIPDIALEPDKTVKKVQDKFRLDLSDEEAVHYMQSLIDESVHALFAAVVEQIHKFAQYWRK
UniProt Q9NW82: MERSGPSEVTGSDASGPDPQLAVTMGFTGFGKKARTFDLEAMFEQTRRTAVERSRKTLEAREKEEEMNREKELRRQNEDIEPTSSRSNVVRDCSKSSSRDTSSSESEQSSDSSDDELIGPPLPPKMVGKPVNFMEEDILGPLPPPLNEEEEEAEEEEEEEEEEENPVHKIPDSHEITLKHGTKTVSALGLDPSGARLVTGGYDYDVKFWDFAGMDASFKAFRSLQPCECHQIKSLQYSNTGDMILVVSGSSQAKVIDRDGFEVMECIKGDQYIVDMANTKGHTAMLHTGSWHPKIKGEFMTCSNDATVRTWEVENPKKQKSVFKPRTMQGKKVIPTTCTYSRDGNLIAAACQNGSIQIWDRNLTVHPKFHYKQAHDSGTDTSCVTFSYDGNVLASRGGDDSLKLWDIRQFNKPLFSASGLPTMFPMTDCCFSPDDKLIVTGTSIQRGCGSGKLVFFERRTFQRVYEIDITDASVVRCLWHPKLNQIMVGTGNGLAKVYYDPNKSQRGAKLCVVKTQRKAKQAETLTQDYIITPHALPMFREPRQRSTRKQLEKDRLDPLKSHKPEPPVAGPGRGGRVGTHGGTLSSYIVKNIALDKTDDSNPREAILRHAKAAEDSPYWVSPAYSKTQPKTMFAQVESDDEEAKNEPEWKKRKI

Compound: [O-][N+](C(C1=C(C(O)=C2)NC(C(C=C3)=CC=C3Cl)C4C1C=CC4)=C2Cl)=O
Assay: melting temperature shift (compound 7 minus DMSO); higher = compound stabilises the protein
Details: 10 µM
Method: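 Thermal proteome profiling (TMT mass spectrometry) in intact DAOY medulloblastoma cells or DAOY lysates treated with 10 µM compound 7 or DMSO, heated at 10 temperatures from 40.5 to 73.8 °C for 3 min. Melting curves were fitted with the Bioconductor TPP package, and the melting point difference between compound and vehicle is reported per protein (single curve per condition).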

[1] = system: intact DAOY cells, treatment time: 90 min, 37 °C
[2] = system: DAOY cell lysate, treatment time: 20 min, 4 °C

Target	melting temperature shift [1]	melting temperature shift [2]
UniProt Q14117	0.534 °C	
RRAGC (UniProt Q9HB90)	3.78 °C	-0.573 °C
IGF1R (UniProt P08069)	-0.0133 °C	2.65 °C
UniProt Q8N5W9		-0.317 °C
RBM4 (UniProt Q9BWF3)	0.468 °C	1.38 °C
SP100 (UniProt P23497)	-1.01 °C	1.19 °C
SAE1 (UniProt Q9UBE0)	0.29 °C	-0.213 °C
RBM17 (UniProt Q96I25)	-0.168 °C	0.254 °C
PGK1 (UniProt P00558)	-0.475 °C	-0.277 °C
PRIM2 (UniProt P49643)	-0.736 °C	-0.608 °C
UniProt P52756	0.834 °C	-0.927 °C
UniProt Q9BVA1	-0.281 °C	-0.748 °C
SH3GL1 (UniProt Q99961)	-0.133 °C	-1.28 °C
GSTK1 (UniProt Q9Y2Q3)	-0.144 °C	1.17 °C
OGFOD1 (UniProt Q8N543)	-0.204 °C	-0.773 °C
NAPRT (UniProt Q6XQN6)	-2.77 °C	-1.03 °C
ACAT2 (UniProt Q9BWD1)	0.834 °C	0.124 °C
RPSA (UniProt P08865)	-0.639 °C	-0.0932 °C
DKC1 (UniProt O60832)	0.732 °C	0.657 °C

Target	melting temperature shift [1]	melting temperature shift [2]
SF3B2 (UniProt Q13435)	-0.278 °C	-0.417 °C
FIP1L1 (UniProt Q6UN15)	-1.65 °C	-0.857 °C
UniProt Q9BYV1	-0.194 °C	
RALY (UniProt Q9UKM9)	-0.213 °C	0.953 °C
TRIM24 (UniProt O15164)		-0.504 °C
UniProt Q5T7M9	-0.66 °C	
UniProt Q9H0N0	-2.25 °C	
ARPC2 (UniProt O15144)	-0.345 °C	-1.31 °C
MYH10 (UniProt P35580)	-0.0588 °C	-0.523 °C
ATAD3B (UniProt Q5T9A4)	-0.203 °C	2.01 °C
UBE2G1 (UniProt P62253)	0.267 °C	-0.556 °C
HIST1H4A (UniProt P62805)	0.108 °C	
OVCA2 (UniProt Q8WZ82)	-0.729 °C	-0.24 °C
URI1 (UniProt O94763)	-0.377 °C	0.403 °C
UniProt Q16635	-0.971 °C	0.394 °C
UniProt Q8NEY4		0.142 °C
ATP5F1 (UniProt P24539)	-2.29 °C	2.18 °C
UniProt Q9BXY0	-0.23 °C	0.563 °C
NFIB (UniProt O00712)		1.36 °C

Target	melting temperature shift [1]	melting temperature shift [2]
FAM175B (UniProt Q15018)	-0.198 °C	-1.37 °C
RALGAPA1 (UniProt Q6GYQ0)	-0.822 °C	-0.964 °C
PGP (UniProt A6NDG6)	-0.738 °C	-2.23 °C
MYL6B (UniProt P14649)		-4.53 °C
UniProt Q9H2J7	0.516 °C	1.31 °C
UniProt Q9ULU4	-0.455 °C	1.45 °C
FAM107B (UniProt Q9H098)		-2.59 °C
PCIF1 (UniProt Q9H4Z3)		-1.49 °C
UniProt O95786	1.39 °C	0.379 °C
IBTK (UniProt Q9P2D0)		-0.934 °C
UniProt Q13523	-0.972 °C	-0.273 °C
PIK3C3 (UniProt Q8NEB9)	-0.586 °C	
UniProt Q7RTU4		-0.471 °C
KMT2D (UniProt O14686)		1.19 °C
PTP4A1 (UniProt Q93096)	-2.1 °C	
SCAF8 (UniProt Q9UPN6)	-0.924 °C	0.431 °C
WDR70 (UniProt Q9NW82)	-0.0609 °C	0.29 °C
RPS6KA1 (UniProt Q15418)	-0.292 °C	-1.49 °C

2 records drawn at random from the list so far, as already listed:
Target	melting temperature shift [1]	melting temperature shift [2]
KMT2D (UniProt O14686)		1.19 °C
WDR70 (UniProt Q9NW82)	-0.0609 °C	0.29 °C

Many values rest on one well or one pass, so single values are uncertain.
